# Source: the supplement of paper PMC8728848
# The other results are listed elsewhere or left out.
# Columns and labels:
# Experiment in all cases: glycan array binding signal (z-score within array); higher = stronger binding
# Conditions in all cases: glycan notation: IUPAC condensed, linker removed
# [1] = molecular target: Fuc(a1-3)[Gal3S(b1-4)]GlcNAc
# Outline: (§1)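 Glycan array binding is given as a within-array Z-score, which can be read as non-binding when negative. The arrays, 3228 of them, came from the Consortium for Functional Glycomics database and were retained only where the protein sequence was available. Z-scores were averaged across arrays of the same protein sequence at different concentrations or buffers and across linkers.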
# [2] = molecular target: Fuc(a1-3)[Gal3S(b1-4)]GlcNAc6S
# Outline: as §1
# [3] = molecular target: Fuc(a1-3)[GalNAc(b1-4)]GlcNAc
# Outline: as §1
# [4] = molecular target: Fuc(a1-4)GlcNAc
# Outline: as §1
# [5] = molecular target: Fuc(b1-3)GlcNAc
# Outline: as §1
# [6] = molecular target: Gal(a1-2)Gal
# Outline: as §1
# [7] = molecular target: Gal(a1-3)Gal
# Outline: as §1
# [8] = molecular target: Gal(a1-3)Gal(b1-3)GlcNAc
# Outline: as §1
# [9] = molecular target: Gal(a1-3)Gal(b1-3)GlcNAc(b1-2)Man(a1-3)[Gal(a1-3)Gal(b1-3)GlcNAc(b1-2)Man(a1-6)]Man(b1-4)GlcNAc(b1-4)GlcNAc
# Outline: as §1
# [10] = molecular target: Gal(a1-3)Gal(b1-3)[Fuc(a1-4)]GlcNAc(b1-2)Man(a1-3)[Gal(a1-3)Gal(b1-3)[Fuc(a1-4)]GlcNAc(b1-2)Man(a1-6)]Man(b1-4)GlcNAc(b1-4)GlcNAc
# Outline: as §1
# [11] = molecular target: Gal(a1-3)Gal(b1-4)Glc
# Outline: as §1
# [12] = molecular target: Gal(a1-3)Gal(b1-4)GlcNAc
# Outline: as §1
# [13] = molecular target: Gal(a1-3)Gal(b1-4)GlcNAc(b1-3)GalNAc
# Outline: as §1
# [14] = molecular target: Gal(a1-3)Gal(b1-4)[Fuc(a1-3)]GlcNAc
# Outline: as §1
# [15] = molecular target: Gal(a1-3)Gal(b1-4)[Fuc(a1-3)]GlcNAc(b1-2)Man(a1-3)[Gal(a1-3)Gal(b1-4)[Fuc(a1-3)]GlcNAc(b1-2)Man(a1-6)]Man(b1-4)GlcNAc(b1-4)GlcNAc
# Outline: as §1
# [16] = molecular target: Gal(a1-3)GalNAc
# Outline: as §1
# [17] = molecular target: Gal(a1-3)[Gal(a1-4)]Gal(b1-4)GlcNAc
# Outline: as §1
# [18] = molecular target: Gal(a1-4)Gal(b1-3)GlcNAc(b1-2)Man(a1-3)[Gal(a1-4)Gal(b1-3)GlcNAc(b1-2)Man(a1-6)]Man(b1-4)GlcNAc(b1-4)GlcNAc
# Outline: as §1
# [19] = molecular target: Gal(a1-4)Gal(b1-4)Glc
# Outline: as §1
# [20] = molecular target: Gal(a1-4)Gal(b1-4)GlcNAc
# Outline: as §1
# [21] = molecular target: Gal(a1-4)Gal(b1-4)GlcNAc(b1-2)Man(a1-3)[Gal(a1-4)Gal(b1-4)GlcNAc(b1-2)Man(a1-6)]Man(b1-4)GlcNAc(b1-4)GlcNAc
# Outline: as §1
# [22] = molecular target: Gal(a1-4)Gal(b1-4)GlcNAc(b1-3)Gal(b1-4)Glc
# Outline: as §1
# [23] = molecular target: Gal(a1-4)GlcNAc
# Outline: as §1
# [24] = molecular target: Gal(a1-6)Glc
# Outline: as §1
# [25] = molecular target: Gal(b1-2)Gal
# Outline: as §1
# [26] = molecular target: Gal(b1-3)Gal
# Outline: as §1
# [27] = molecular target: Gal(b1-3)Gal(b1-4)GlcNAc
# Outline: as §1
# [28] = molecular target: Gal(b1-3)Gal(b1-4)GlcNAc(b1-2)Man(a1-3)[Gal(b1-3)Gal(b1-4)GlcNAc(b1-2)Man(a1-6)]Man(b1-4)GlcNAc(b1-4)GlcNAc
# Outline: as §1
# [29] = molecular target: Gal(b1-3)GalNAc
# Outline: as §1
# [30] = molecular target: Gal(b1-3)GalNAc(a1-3)[Fuc(a1-2)]Gal(b1-4)Glc
# Outline: as §1
# [31] = molecular target: Gal(b1-3)GalNAc(a1-3)[Fuc(a1-2)]Gal(b1-4)GlcNAc
# Outline: as §1
# [32] = molecular target: Gal(b1-3)GalNAc(b1-3)Gal(a1-4)Gal(b1-4)Glc
# Outline: as §1
# [33] = molecular target: Gal(b1-3)GalNAc(b1-4)Gal(b1-4)Glc
# Outline: as §1
# [34] = molecular target: Gal(b1-3)GalNAc(b1-4)[Neu5Ac(a2-3)]Gal(b1-4)Glc
# Outline: as §1
# [35] = molecular target: Gal(b1-3)GlcNAc
# Outline: as §1
# [36] = molecular target: Gal(b1-3)GlcNAc(a1-6)Gal(b1-4)GlcNAc
# Outline: as §1
# [37] = molecular target: Gal(b1-3)GlcNAc(b1-2)Man(a1-3)[Gal(b1-3)GlcNAc(b1-2)Man(a1-6)]Man(b1-4)GlcNAc(b1-4)GlcNAc
# Outline: as §1
# [38] = molecular target: Gal(b1-3)GlcNAc(b1-2)Man(a1-3)[Gal(b1-3)GlcNAc(b1-2)Man(a1-6)]Man(b1-4)GlcNAc(b1-4)[Fuc(a1-6)]GlcNAc
# Outline: as §1
# [39] = molecular target: Gal(b1-3)GlcNAc(b1-3)Gal(b1-3)GlcNAc
# Outline: as §1
# [40] = molecular target: Gal(b1-3)GlcNAc(b1-3)Gal(b1-4)Glc
# Outline: as §1
# [41] = molecular target: Gal(b1-3)GlcNAc(b1-3)Gal(b1-4)GlcNAc
# Outline: as §1
# [42] = molecular target: Gal(b1-3)GlcNAc(b1-3)Gal(b1-4)GlcNAc(b1-6)[Gal(b1-3)GlcNAc(b1-3)]Gal(b1-4)Glc
# Outline: as §1
# [43] = molecular target: Gal(b1-3)GlcNAc(b1-3)Gal(b1-4)[Fuc(a1-3)]GlcNAc(b1-6)[Gal(b1-3)GlcNAc(b1-3)]Gal(b1-4)Glc
# Outline: as §1
# [44] = molecular target: Gal(b1-3)GlcNAc(b1-3)GalNAc
# Outline: as §1
# [45] = molecular target: Gal(b1-3)GlcNAc(b1-6)Gal(b1-4)GlcNAc
# Outline: as §1
# [46] = molecular target: Gal(b1-3)[Fuc(a1-4)]GlcNAc
# Outline: as §1
# [47] = molecular target: Gal(b1-3)[Fuc(a1-4)]GlcNAc(b1-2)Man(a1-3)[Gal(b1-3)[Fuc(a1-4)]GlcNAc(b1-2)Man(a1-6)]Man(b1-4)GlcNAc(b1-4)GlcNAc
# Outline: as §1
# [48] = molecular target: Gal(b1-3)[Fuc(a1-4)]GlcNAc(b1-2)Man(a1-3)[Gal(b1-3)[Fuc(a1-4)]GlcNAc(b1-2)Man(a1-6)]Man(b1-4)GlcNAc(b1-4)[Fuc(a1-6)]GlcNAc
# Outline: as §1
# [49] = molecular target: Gal(b1-3)[Fuc(a1-4)]GlcNAc(b1-3)Gal(b1-3)[Fuc(a1-4)]GlcNAc
# Outline: as §1
# [50] = molecular target: Gal(b1-3)[Fuc(a1-4)]GlcNAc(b1-3)Gal(b1-4)GlcNAc
# Outline: as §1
# [51] = molecular target: Gal(b1-3)[Fuc(a1-4)]GlcNAc(b1-3)Gal(b1-4)[Fuc(a1-3)]GlcNAc
# Outline: as §1
# [52] = molecular target: Gal(b1-3)[GlcNAc(b1-6)]GalNAc
# Outline: as §1
# [53] = molecular target: Gal(b1-3)[Neu5Ac(a2-6)]GalNAc
# Outline: as §1
# [54] = molecular target: Gal(b1-3)[Neu5Ac(a2-6)]GlcNAc(b1-6)Gal(b1-4)Glc
# Outline: as §1
# [55] = molecular target: Gal(b1-3)[Neu5Ac(b2-6)]GalNAc
# Outline: as §1
# [56] = molecular target: Gal(b1-4)GalNAc(a1-3)[Fuc(a1-2)]Gal(b1-4)GlcNAc
# Outline: as §1
# [57] = molecular target: Gal(b1-4)GalNAc(b1-3)[Fuc(a1-2)]Gal(b1-4)GlcNAc
# Outline: as §1
# [58] = molecular target: Gal(b1-4)Glc
# Outline: as §1
# [59] = molecular target: Gal(b1-4)Glc6S
# Outline: as §1
# [60] = molecular target: Gal(b1-4)GlcNAc
# Outline: as §1
binder,measurement,setting,value
"MIC2 (Toxoplasma gondii), S8F9G8 (protein) MRLQREAVFGLMFACGMWMWPSEVAGGGWSIVDALRKRYDTSRGGDANGVDTSGVEDVIQSESAIGAAEGCTNQLDICFLIDSSGSIGIQNFRLVKQFLHTFLMVLPIGPEEVNNAVVTYSTDVHLQWDLQSPNAVDKQLAAHAVLDMPYKKGSTNTSDGLKACKQILFTGSRPGREHVPKLVIGMTDGESDSDFRTVRAAKEIRELGGIVTVLAVGHYVKHSECRSMCGCSGTSDDDSPCPLYLRADWGQLATAIKPMLKEVCKTLPQDAICSDWSAWSPCSVSCGDGSQIRTRTEVSAPQPGTPTCPDCPAPMGRTCVEQGGLEEIRECSAGVCAVDAGCGVWGEWSAWSASCGNATRKRERTRYNDPPPQGAGRRCENQDPPVLQEQTEEATLAPCITIPPTPPEWAAWSDCTVTCGGGNRHRVRNALPPGLGSQNGESDESLVSKLWPGTDLRQEEACNTSPCPINATCGQFEEWSTCSVSCGGGLKTRSRNPWNEDQQHGGLSCEQQHPGGRTETITCNPQACPVDERPGEWAEWGECSVTCGDGVRERRRGKSLVEAKFGGRTIDQQNEALPEDLKIKNVEYEPCSYPACGASCTYVWSDWNKCVCPMGYQARHAAVKFDYRNKPCDLPTFETKACSCGETNPVPSEGTTPGAPGATGPEQPNQRPLPEGSDENETPTNEEGEQSKKESGSGIAGAIAGGVIGGLILLGAAGGASYHYYLSSSVGSPSAEIEYEADDGATKVVMEEEKETLVPVDDDSDMWME",glycan array binding signal (z-score),[1],-0.031
same,glycan array binding signal (z-score),[2],3.68
same,glycan array binding signal (z-score),[3],1.07
same,glycan array binding signal (z-score),[4],0.126
same,glycan array binding signal (z-score),[5],0.622
same,glycan array binding signal (z-score),[6],0.018
same,glycan array binding signal (z-score),[7],-0.528
same,glycan array binding signal (z-score),[8],0.259
same,glycan array binding signal (z-score),[9],1.23
same,glycan array binding signal (z-score),[10],-0.391
same,glycan array binding signal (z-score),[11],-0.31
same,glycan array binding signal (z-score),[12],-0.181
same,glycan array binding signal (z-score),[13],0.738
same,glycan array binding signal (z-score),[14],-0.378
same,glycan array binding signal (z-score),[15],-0.581
same,glycan array binding signal (z-score),[16],0.545
same,glycan array binding signal (z-score),[17],-0.891
same,glycan array binding signal (z-score),[18],-0.296
same,glycan array binding signal (z-score),[19],-1.03
same,glycan array binding signal (z-score),[20],-0.915
same,glycan array binding signal (z-score),[21],-0.941
same,glycan array binding signal (z-score),[22],0.229
same,glycan array binding signal (z-score),[23],-0.17
same,glycan array binding signal (z-score),[24],1.43
same,glycan array binding signal (z-score),[25],0.185
same,glycan array binding signal (z-score),[26],0.049
same,glycan array binding signal (z-score),[27],-0.903
same,glycan array binding signal (z-score),[28],0.013
same,glycan array binding signal (z-score),[29],0.256
same,glycan array binding signal (z-score),[30],0.186
same,glycan array binding signal (z-score),[31],0.169
same,glycan array binding signal (z-score),[32],0.459
same,glycan array binding signal (z-score),[33],0.057
same,glycan array binding signal (z-score),[34],0.618
same,glycan array binding signal (z-score),[35],-0.655
same,glycan array binding signal (z-score),[36],-0.214
same,glycan array binding signal (z-score),[37],-0.698
same,glycan array binding signal (z-score),[38],1.61
same,glycan array binding signal (z-score),[39],-0.795
same,glycan array binding signal (z-score),[40],-0.513
same,glycan array binding signal (z-score),[41],0.477
same,glycan array binding signal (z-score),[42],-0.45
same,glycan array binding signal (z-score),[43],-0.965
same,glycan array binding signal (z-score),[44],-0.163
same,glycan array binding signal (z-score),[45],-0.04
same,glycan array binding signal (z-score),[46],-0.077
same,glycan array binding signal (z-score),[47],-0.749
same,glycan array binding signal (z-score),[48],-0.433
same,glycan array binding signal (z-score),[49],-0.718
same,glycan array binding signal (z-score),[50],-0.085
same,glycan array binding signal (z-score),[51],0.177
same,glycan array binding signal (z-score),[52],-0.743
same,glycan array binding signal (z-score),[53],-0.695
same,glycan array binding signal (z-score),[54],-0.102
same,glycan array binding signal (z-score),[55],-0.412
same,glycan array binding signal (z-score),[56],-0.048
same,glycan array binding signal (z-score),[57],0.025
same,glycan array binding signal (z-score),[58],-0.371
same,glycan array binding signal (z-score),[59],1.28
same,glycan array binding signal (z-score),[60],0.256
